From PubChem BioAssay AID493014 (National Center for Advancing Translational Sciences (NCATS), 2011)
This is one part of the list. The main result of the screen is listed elsewhere. These columns were measured beside it and carry no call. Most of these compounds were active or inconclusive in the main read-out, so they are no random draw. The note in brackets gives the kind of curve behind each potency; many fits are weak.

Experiment: qHTS Assay to Find Inhibitors of Chronic Active B-Cell Receptor Signaling
Conditions: ABC-DLBCL IkBa-CBG/CBR reporter, luminescence ratio (green luciferase fused to IkBa over red control in TMD8 lymphoma cells), 4 h
Summary of the method: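 TMD8 ABC-DLBCL cells carrying doxycycline-inducible green luciferase fused to IkappaBalpha plus unfused red luciferase were exposed to compounds (up to 46 uM) for 4 hrs at 37C. Activity came from the overlap-corrected green/red luminescence ratio.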

[1] = measured here: CBR red luminescence, cell number
[2] = measured here: IkBa-CBG green luminescence

| Structure (SMILES) | AC50 [1] | AC50 [2] |
| --- | --- | --- |
| COc1cc(-c2ccc(NC(=O)NC3CC3)c(OC)c2)ccc1NC(=O)NC1CC1 | 25.1 µM [falling, partial curve, poor fit] | 15.8 µM [rising, partial curve, poor fit] |
| Cc1ccc(S(=O)(=O)N2CCN(C(=O)C3CC(=O)N(c4ccc5c(c4)OCCO5)C3)CC2)cc1 (configuration not stated) | 0.731 µM [rising, full curve, poor fit] | – |
| CC(=O)c1ccccc1OCC(O)CN1CCN(CCN2C(=O)c3cccc4cccc(c34)C2=O)CC1 (configuration not stated) | 25.1 µM [falling, single point] | – |
| Cc1c(CCC(=O)O)c(=O)oc2cc3occ(-c4ccc(F)cc4)c3cc12 | 9.2 µM [rising, partial curve, poor fit] | – |
| Cc1nnc(SCc2ccc(C(=O)Nc3cc(Cl)ccc3C)cc2)s1 | 14.6 µM [falling, partial curve, poor fit] | – |
| CCOC(=O)N1CCN(C(=O)COc2cccc3c2CCN(Cc2cccc(C)c2)C3=O)CC1 | 18.4 µM [falling, partial curve] | – |
| COc1ccc2c(=O)c(-c3ccc(OC)c(OC)c3)coc2c1 | 35.5 µM [falling, single point] | – |
| NC(=O)c1cc(C(=O)Cc2ccccc2)c[nH]1 | 0.398 µM [rising, full curve, poor fit] | – |
| O=C(Cc1ccc(Cl)cc1)Nc1ncccn1 | 3.16 µM [rising, partial curve] | – |
| CCC1Cc2c(nc(N)c3c(N)nc(N4CCOCC4)c(C#N)c23)O1 (configuration not stated) | 35.5 µM [falling, partial curve, poor fit] | – |
| C=CCNc1ncnc2c1cnn2-c1cccc(C)c1 | 9.2 µM [falling, partial curve] | – |
| CCOc1ccc(C(=O)CCN2CCOCC2)cc1 | 35.5 µM [falling, single point] | – |
| O=C(/C=C/c1ccc(Br)cc1)NC(=O)c1ccccc1O | 3.16 µM [falling, full curve] | – |
| CCCCCCn1c(SCCN2CCOCC2)nc2c1c(=O)[nH]c(=O)n2C | 15.8 µM [rising, partial curve] | – |
| COc1cc(-c2nc3ccccn3c2/N=C/c2cccc(OC)c2O)ccc1O | 3.16 µM [falling, full curve, poor fit] | – |
| O=C(Nc1ccc(N2CCCC2)cc1)c1ccccc1[N+](=O)[O-] | 8.91 µM [falling, partial curve] | – |
| CC(CC(=O)O)CC(=O)Nc1cc(C(F)(F)F)cc(C(F)(F)F)c1 (configuration not stated) | 1.12 µM [rising, full curve, poor fit] | – |
| N/C(=N\OC(=O)c1ccco1)c1ccccn1 | 25.1 µM [falling, single point] | – |
| CCOC(=O)Cc1nc2cc(Cl)ccc2o1 | 10 µM [rising, partial curve] | – |
| Cc1cc(COc2ccccc2)oc1C(=O)O | 1.58 µM [falling, full curve, poor fit] | – |
| O=C(c1cccc(OC(F)F)c1)N1CCN(c2ncccn2)CC1 | 35.5 µM [rising, single point] | – |

| Structure (SMILES) | AC50 [1] | AC50 [2] |
| --- | --- | --- |
| CCOC(=O)N1CC=C2C(C#N)=C(N)C(C#N)(C#N)[C@H](c3ccc(OCC)c(OCC)c3)[C@H]2C1 | 29.1 µM [falling, single point] | – |
| Cn1ccs/c1=N\C(=O)Nc1ccccc1 | 17.8 µM [falling, partial curve] | – |
| O=C(NC1=NN(c2ccccc2)CC1)Nc1ccccc1F | 14.1 µM [falling, partial curve] | – |
| C/C(=N\NC(=O)c1cc(O)ccc1O)c1cccc(NC(=O)c2ccc(Cl)cc2)c1 | 22.4 µM [falling, single point] | – |
| COCCCN1C(=O)C(=O)/C(=C(/O)c2ccccc2)C1c1ccc2c(c1)OCO2 (configuration not stated) | 12.6 µM [rising, partial curve, poor fit] | – |
| COC(=O)COc1ccc2c(c1)O/C(=C\c1cccc([N+](=O)[O-])c1)C2=O | 5.62 µM [rising, partial curve] | – |
| COc1cc(/C=C(/C(=O)c2cccs2)c2nc3ccccc3[nH]2)cc(OC)c1O | 2.59 µM [falling, partial curve] | 20.6 µM [rising, partial curve, poor fit] |
| COc1ccc(Cc2nnc(NC(=O)c3ccccc3F)s2)cc1OC | 7.08 µM [falling, partial curve, poor fit] | – |
| CCn1c(SCC(=O)N2CCN(c3ccccc3)CC2)nc2c(c1=O)SC(C)C2 (configuration not stated) | – | 23.1 µM [rising, partial curve, poor fit] |
| COc1ccc(-c2csc3nc(C)nc(N4CCC(C)CC4)c23)cc1OC | 11.2 µM [rising, partial curve] | – |
| CCOc1ccc(NC(=O)CSc2nnc(-c3cc(C)[nH]n3)n2N)cc1 | 0.501 µM [rising, full curve, poor fit] | – |
| Cc1nc2ccccc2n1C1CC(=O)N(N(C)C)C1=O (configuration not stated) | 29.1 µM [falling, single point] | – |
| COc1ccc(NC(=O)Cc2ccc(Cl)c(Cl)c2)cn1 | 2 µM [rising, full curve, poor fit] | – |
| O=C(CSC1=NC(=O)C(Cc2ccccc2)C(=O)N1)NC1CCCCC1 (configuration not stated) | 29.1 µM [falling, single point] | – |
| CCCc1nc2scc(-c3ccc(C)cc3)c2c(=O)n1N | 18.4 µM [rising, partial curve, poor fit] | – |
| Cc1noc(C)c1CSc1ncnc2ccccc12 | 22.4 µM [rising, partial curve] | 11.2 µM [falling, partial curve] |
| COc1cc(/C=C/C(=O)N(C)CC(=O)Nc2ccccc2Br)cc2c1OCCO2 | 16.4 µM [falling, single point] | – |
| COc1cccc(/C=C2\CCc3ccccc3C2=O)c1 | 35.5 µM [falling, single point] | – |
| O=C(NC(Cc1ccccc1)C(=O)NC1CC1)OCc1ccccc1 (configuration not stated) | 11.2 µM [rising, partial curve] | – |
| O=C(Nc1nc(-c2ccccn2)cs1)c1ccc(-c2ccccc2F)o1 | 25.9 µM [falling, single point] | – |
| CC(C)C(C)NC(=O)COC(=O)c1cc(S(=O)(=O)N(C)C)ccc1N1CCCC1 (configuration not stated) | 6.31 µM [rising, partial curve, poor fit] | – |

Laid out differently: 4 of the compounds above
CCn1c(SCC(=O)N2CCN(c3ccccc3)CC2)nc2c(c1=O)SC(C)C2 (configuration not stated)
  AC50 [2]: 23.1 µM [rising, partial curve, poor fit]
COc1ccc(-c2csc3nc(C)nc(N4CCC(C)CC4)c23)cc1OC
  AC50 [1]: 11.2 µM [rising, partial curve]
CCOc1ccc(NC(=O)CSc2nnc(-c3cc(C)[nH]n3)n2N)cc1
  AC50 [1]: 0.501 µM [rising, full curve, poor fit]
Cc1nc2ccccc2n1C1CC(=O)N(N(C)C)C1=O (configuration not stated)
  AC50 [1]: 29.1 µM [falling, single point]

(list continues)

| Structure (SMILES) | AC50 [1] | AC50 [2] |
| --- | --- | --- |
| O=c1c2ccccc2oc2nc(-c3ccco3)n(CCc3ccccc3)c(=O)c12 | 12.6 µM [falling, partial curve, poor fit] | – |
| Cc1ccc(C2Oc3ccccc3C3=C2C(c2cccs2)n2ncnc2N3)cc1 (configuration not stated) | 12.6 µM [falling, partial curve, poor fit] | – |
| CN1c2ccccc2-c2nc3ccccc3n2C1c1cccs1 (configuration not stated) | 25.9 µM [falling, single point] | – |
| COc1ccccc1-n1c(SCC(=O)Nc2ccc(NC(C)=O)cc2)nc2c([nH]c3ccccc32)c1=O | 5.01 µM [falling, full curve] | – |
| CN(C(=O)c1ccc(-c2nn(C)c(=O)c3ccccc23)cc1)C1CCCCC1 | – | 15.8 µM [falling, partial curve, poor fit] |
| O=C(Nc1ccc(Br)c2ccccc12)c1ccc2ccccc2c1O | 35.5 µM [falling, single point] | – |
| O=C(COc1ccc(F)cc1)N1CCC(c2ccccc2)C1 (configuration not stated) | 23.1 µM [falling, single point] | – |
| CC(C)OC(=O)c1ccc(NC(=O)c2cccc(-n3cnnn3)c2)cc1 | 0.82 µM [rising, partial curve] | – |
| O=[N+]([O-])c1cc2oc3c(c2c(C=NCc2ccncc2)c1O)CCCC3 | 29.1 µM [rising, single point] | – |
| CC1=NN(c2ccccc2)C(=O)/C1=C/c1c(O)n(-c2ccc(F)cc2)[nH]c1=O | 13 µM [falling, single point] | – |
| Cc1ccc(/C=N\Nc2cn[nH]c(=O)c2Cl)cc1 | 0.92 µM [falling, full curve, poor fit] | – |
| COc1ccccc1NS(=O)(=O)c1ccc(O)c(C(=O)OCC(=O)Nc2ccccc2F)c1 | 11.2 µM [falling, partial curve, poor fit] | – |
| COC(=O)c1ccc(/C=C/C(=O)c2cccc(OC)c2)cc1 | 10.3 µM [rising, partial curve, poor fit] | 23.1 µM [falling, single point] |
| CC1CCN(c2ccc(C(=O)Nc3ccc4c(c3)OCO4)cc2[N+](=O)[O-])CC1 | 6.51 µM [rising, single point] | – |
| COC(=O)Cc1c(C)c2ccc(OCC(=O)c3ccc(OC)c(OC)c3)cc2oc1=O | 0.0891 µM [rising, full curve, poor fit] | – |
| NC(=O)c1ccc(N2CCCCC2)c(N2C(=O)C3C4C=CC(C4)C3C2=O)c1 (configuration not stated) | 15.8 µM [rising, single point] | – |
| COC(=O)c1ccc(NC(=O)CNc2ccccc2)cc1 | 2.24 µM [falling, full curve] | – |
| Cc1ccc(N=Cc2nc(-c3ccco3)oc2O)cc1 | 7.08 µM [falling, partial curve] | – |
| O=C(NCc1ccc2c(c1)OCO2)C1COc2ccccc2O1 (configuration not stated) | 14.6 µM [rising, partial curve] | – |
| O=C(Nc1nc(-c2ccc3c(c2)OCO3)cs1)C1COc2ccccc2O1 (configuration not stated) | 16.4 µM [falling, partial curve, poor fit] | – |
| CN(C)CCCn1c2c(c(SCC(=O)Nc3cccc4ccccc34)nc1=O)CCC2 | 13 µM [falling, partial curve, poor fit] | – |
